Among the data in PMC4695161 are binding values, retold here.

By UniProt entry, the sequences of proteins in these tests, tags left out. Residues count along the entry.
UniProt P54368: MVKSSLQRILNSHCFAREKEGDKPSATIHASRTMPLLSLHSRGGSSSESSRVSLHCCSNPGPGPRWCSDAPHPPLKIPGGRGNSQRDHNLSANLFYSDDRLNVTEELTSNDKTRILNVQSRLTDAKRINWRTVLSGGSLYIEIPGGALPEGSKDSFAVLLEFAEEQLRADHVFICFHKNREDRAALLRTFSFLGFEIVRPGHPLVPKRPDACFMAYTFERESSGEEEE
UniProt P24385, residues 155-295: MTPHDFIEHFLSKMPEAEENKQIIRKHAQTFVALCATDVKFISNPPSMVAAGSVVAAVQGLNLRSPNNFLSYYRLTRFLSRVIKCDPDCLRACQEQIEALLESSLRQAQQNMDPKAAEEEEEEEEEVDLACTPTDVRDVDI
UniProt O14977: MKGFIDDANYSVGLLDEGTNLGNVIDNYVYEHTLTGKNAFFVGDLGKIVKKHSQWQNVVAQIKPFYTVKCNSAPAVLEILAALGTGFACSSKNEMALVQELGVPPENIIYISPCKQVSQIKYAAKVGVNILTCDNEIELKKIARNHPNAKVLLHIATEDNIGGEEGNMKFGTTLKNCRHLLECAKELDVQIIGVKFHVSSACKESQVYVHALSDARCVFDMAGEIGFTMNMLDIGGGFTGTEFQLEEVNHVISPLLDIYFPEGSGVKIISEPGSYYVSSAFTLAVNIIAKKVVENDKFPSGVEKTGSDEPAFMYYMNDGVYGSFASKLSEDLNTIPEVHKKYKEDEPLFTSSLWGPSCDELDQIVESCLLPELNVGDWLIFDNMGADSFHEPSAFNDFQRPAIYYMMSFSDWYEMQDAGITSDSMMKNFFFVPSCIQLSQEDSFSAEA

These are yes or no findings as the source states them, for the method shown. Some entries that bind do so weakly or less than the wild type.

For test [1], the target named is human antizyme (AZ), wild type (human) (UniProt P54368). Description: condition: AZ 0.25 mg/ml, CCND1(155-295) 0.35 mg/ml, molar ratio 1; AUC; sedimentation velocity, size distribution of mixtures at molar ratio AZ/CCND1 of 1; 30 mM Tris-HCl pH 7.4, 50 mM NaCl, 20°C; no constant fitted; both purified.
Test [2] has the same target. Description: AUC; sedimentation velocity, size distribution of AZ with ODC (or AZI) and CCND1, pre-incubated in either order or co-incubated; molar ratio of AZ to each protein 1; 30 mM Tris-HCl pH 7.4, 50 mM NaCl, 20°C; both purified.

In the case of “C-terminal CCND1 peptide CCND1(155-295) (from UniProt P24385 155-295) (domain or fragment)”, the binding entry in test [1] is “no binding”.
Regarding “human antizyme inhibitor (AZI) (from UniProt O14977 1-448)”, the binding result in test [2] is “binds”.
